The results in this text go back to paper PMC10825269.

The chains behind the UniProt entries cited, without tags or fusion partners.
UniProt Q14839: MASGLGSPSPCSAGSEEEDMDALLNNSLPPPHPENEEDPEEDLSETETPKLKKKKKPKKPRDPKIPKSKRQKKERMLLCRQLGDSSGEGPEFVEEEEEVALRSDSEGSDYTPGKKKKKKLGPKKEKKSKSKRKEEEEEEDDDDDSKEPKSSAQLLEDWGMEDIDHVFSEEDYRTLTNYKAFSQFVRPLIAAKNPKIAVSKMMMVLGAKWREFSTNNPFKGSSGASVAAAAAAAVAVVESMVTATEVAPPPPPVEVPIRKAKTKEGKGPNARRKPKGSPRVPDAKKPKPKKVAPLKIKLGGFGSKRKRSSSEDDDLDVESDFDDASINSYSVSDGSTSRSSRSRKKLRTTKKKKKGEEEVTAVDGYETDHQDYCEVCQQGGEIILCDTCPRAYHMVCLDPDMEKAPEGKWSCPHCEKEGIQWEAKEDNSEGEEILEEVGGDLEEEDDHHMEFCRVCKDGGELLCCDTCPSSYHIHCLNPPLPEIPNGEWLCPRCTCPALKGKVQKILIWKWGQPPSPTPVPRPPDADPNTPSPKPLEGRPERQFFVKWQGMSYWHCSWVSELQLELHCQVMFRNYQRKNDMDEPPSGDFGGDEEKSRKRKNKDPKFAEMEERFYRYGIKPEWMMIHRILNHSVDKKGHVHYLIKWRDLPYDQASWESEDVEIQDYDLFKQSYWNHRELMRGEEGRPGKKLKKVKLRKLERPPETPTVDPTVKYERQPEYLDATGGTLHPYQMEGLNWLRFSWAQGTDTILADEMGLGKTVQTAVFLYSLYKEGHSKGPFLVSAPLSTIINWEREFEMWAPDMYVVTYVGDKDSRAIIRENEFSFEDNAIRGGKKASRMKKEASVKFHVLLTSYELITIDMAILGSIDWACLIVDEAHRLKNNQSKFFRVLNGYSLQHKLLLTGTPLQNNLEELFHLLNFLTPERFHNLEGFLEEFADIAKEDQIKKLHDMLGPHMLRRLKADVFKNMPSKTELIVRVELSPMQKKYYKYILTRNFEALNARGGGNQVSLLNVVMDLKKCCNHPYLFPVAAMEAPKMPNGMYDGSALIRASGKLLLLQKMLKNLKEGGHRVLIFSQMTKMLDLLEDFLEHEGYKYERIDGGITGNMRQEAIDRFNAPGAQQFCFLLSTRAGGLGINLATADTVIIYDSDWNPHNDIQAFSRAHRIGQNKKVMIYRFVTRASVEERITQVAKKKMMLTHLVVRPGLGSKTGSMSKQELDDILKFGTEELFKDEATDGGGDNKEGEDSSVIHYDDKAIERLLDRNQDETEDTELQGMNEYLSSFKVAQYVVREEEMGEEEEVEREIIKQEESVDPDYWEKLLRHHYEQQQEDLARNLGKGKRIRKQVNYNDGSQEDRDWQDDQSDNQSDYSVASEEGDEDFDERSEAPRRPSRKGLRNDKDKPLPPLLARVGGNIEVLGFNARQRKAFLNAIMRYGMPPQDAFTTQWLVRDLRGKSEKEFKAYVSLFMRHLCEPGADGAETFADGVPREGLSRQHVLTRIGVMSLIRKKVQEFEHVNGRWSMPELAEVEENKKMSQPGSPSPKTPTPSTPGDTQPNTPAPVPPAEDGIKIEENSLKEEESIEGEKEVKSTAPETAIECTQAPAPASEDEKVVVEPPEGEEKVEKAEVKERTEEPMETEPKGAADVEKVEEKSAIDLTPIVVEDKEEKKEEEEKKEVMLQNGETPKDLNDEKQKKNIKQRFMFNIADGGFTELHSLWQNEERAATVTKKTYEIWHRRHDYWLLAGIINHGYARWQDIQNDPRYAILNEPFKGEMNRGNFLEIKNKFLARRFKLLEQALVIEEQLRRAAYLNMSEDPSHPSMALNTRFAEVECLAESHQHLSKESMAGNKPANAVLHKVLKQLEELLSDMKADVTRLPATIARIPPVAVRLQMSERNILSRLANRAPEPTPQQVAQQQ
UniProt P03372: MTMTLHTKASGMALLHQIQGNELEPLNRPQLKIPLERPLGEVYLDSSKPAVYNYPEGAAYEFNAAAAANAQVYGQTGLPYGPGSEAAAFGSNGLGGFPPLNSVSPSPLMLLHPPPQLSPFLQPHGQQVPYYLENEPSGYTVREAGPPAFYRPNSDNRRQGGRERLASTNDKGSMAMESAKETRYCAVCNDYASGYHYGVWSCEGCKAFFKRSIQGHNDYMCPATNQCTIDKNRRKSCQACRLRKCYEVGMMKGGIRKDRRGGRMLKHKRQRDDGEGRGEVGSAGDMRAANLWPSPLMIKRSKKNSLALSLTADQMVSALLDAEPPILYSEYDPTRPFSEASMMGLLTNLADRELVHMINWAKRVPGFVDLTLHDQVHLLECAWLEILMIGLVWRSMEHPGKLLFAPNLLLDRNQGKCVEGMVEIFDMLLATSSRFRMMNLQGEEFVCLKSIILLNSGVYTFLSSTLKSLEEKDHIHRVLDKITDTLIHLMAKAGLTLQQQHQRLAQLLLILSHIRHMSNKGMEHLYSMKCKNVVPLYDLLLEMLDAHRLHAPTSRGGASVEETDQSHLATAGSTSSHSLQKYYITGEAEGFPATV

These are yes or no findings as the source states them, for the method shown. In cells and extracts the contact can be indirect. Some binding calls cover weakened binding; strength is not graded here.

In assay [1] the target is GST-CHD4 fusion protein (UniProt Q14839). The assay can be described thus: pull-down; purified GST-CHD4 (bait) immobilised on the Pierce Spin Column; prey endogenous ERα from MCF7 cell lysate; WB; GST alone as control; only the target purified.
In assay [2] the target is Flag-ERα (estrogen receptor alpha) (UniProt P03372). Description: co-IP; HEK293T cells transfected with the indicated plasmids for 36 h; Co-IP with Flag antibody, WB with GFP antibody.
For assay [3], the target named is endogenous ERα (estrogen receptor alpha) of MCF7 cells (human (endogenous in MCF7)) (UniProt P03372). Description: co-IP; endogenous proteins, cells at 90% density; Co-IP with anti-ERα then WB anti-CHD4 in MCF7 cells, or Co-IP with anti-CHD4 then WB anti-ERα in ZR-75-1 cells; control Co-IP with anti-IgG.
The target of assay [4] is endogenous CHD4 (chromodomain helicase DNA-binding 4) of ZR-75-1 cells (human (endogenous in ZR-75-1)) (UniProt Q14839). The assay is described as above.
The target of assay [5] is Flag-CHD4 (chromodomain helicase DNA-binding 4) (UniProt Q14839). Description: co-IP; HEK293T cells transfected with the indicated plasmids for 36 h; Co-IP with Flag antibody, WB with GFP antibody.

As for “endogenous ERα (estrogen receptor alpha) of MCF7 cells (from UniProt P03372 1-595)”, in assay [1], the binding result is reported as “binds”.

As to “GFP-CHD4 (chromodomain helicase DNA-binding 4) (from UniProt Q14839 1-1912)”, the binding result in assay [2] is “binds”.

For “endogenous CHD4 (chromodomain helicase DNA-binding 4) of MCF7 cells (from UniProt Q14839 1-1912)”, in assay [3], the binding result was “binds”.

“endogenous ERα (estrogen receptor alpha) of ZR-75-1 cells (from UniProt P03372 1-595)”: the binding result in assay [4] was “binds”.

For the substance “GFP-ERα (estrogen receptor alpha) (from UniProt P03372 1-595)”, the binding entry in assay [5] was “binds”.
